No constants are given. Whether binding was seen depends on the method and setting. Binding seen in cells or lysates may run through a third protein. Some entries that bind do so weakly or less than the wild type.
Key:
[1] = target: ph-S675-β-catenin (endogenous, HepG2 and Huh6 cells) (human (endogenous in HepG2 and Huh6)) (UniProt P35222); test: co-IP; extracts of HepG2 and Huh6 cells treated with 5 μM PRI-724; True Blot protocol, Western blot; the precipitating antibody is not told
[2] = target: ph-S675-β-catenin (endogenous, HepG2 and Huh6 cells) (human (endogenous in HepG2 and Huh6)) (UniProt P35222); test: co-IP; extracts of HepG2 and Huh6 cells treated with DMSO (control); True Blot protocol, Western blot; the precipitating antibody is not told
[3] = target: β-catenin (endogenous, aggressive HBL tumors) (human (endogenous in HBL patient tumors)) (UniProt P35222); test: co-IP; protein extracts of HBL patient tissue; improved True Blot protocol, IP samples boiled 30 min in loading buffer, Western blot; the precipitating antibody is not told
[4] = target: TCF4 (endogenous, aggressive HBL tumors) (human (endogenous in HBL patient tumors)) (UniProt Q9NQB0); test: pull-down; biotinylated DNA oligomer with the TCF4 binding site from CEGRs/ALCDs on streptavidin beads, incubated 4 h with protein extracts of background and tumor regions of HBL; 10 mM Tris-HCl pH 7.5, 100 mM NaCl, 5 mM β-mercaptoethanol, 10% glycerol; eluted with 1% SDS, Western blot for β-catenin, TCF4 and p300

Protein sequences, listed by entry. Tags and fused reporters are not part of them.
UniProt P35222: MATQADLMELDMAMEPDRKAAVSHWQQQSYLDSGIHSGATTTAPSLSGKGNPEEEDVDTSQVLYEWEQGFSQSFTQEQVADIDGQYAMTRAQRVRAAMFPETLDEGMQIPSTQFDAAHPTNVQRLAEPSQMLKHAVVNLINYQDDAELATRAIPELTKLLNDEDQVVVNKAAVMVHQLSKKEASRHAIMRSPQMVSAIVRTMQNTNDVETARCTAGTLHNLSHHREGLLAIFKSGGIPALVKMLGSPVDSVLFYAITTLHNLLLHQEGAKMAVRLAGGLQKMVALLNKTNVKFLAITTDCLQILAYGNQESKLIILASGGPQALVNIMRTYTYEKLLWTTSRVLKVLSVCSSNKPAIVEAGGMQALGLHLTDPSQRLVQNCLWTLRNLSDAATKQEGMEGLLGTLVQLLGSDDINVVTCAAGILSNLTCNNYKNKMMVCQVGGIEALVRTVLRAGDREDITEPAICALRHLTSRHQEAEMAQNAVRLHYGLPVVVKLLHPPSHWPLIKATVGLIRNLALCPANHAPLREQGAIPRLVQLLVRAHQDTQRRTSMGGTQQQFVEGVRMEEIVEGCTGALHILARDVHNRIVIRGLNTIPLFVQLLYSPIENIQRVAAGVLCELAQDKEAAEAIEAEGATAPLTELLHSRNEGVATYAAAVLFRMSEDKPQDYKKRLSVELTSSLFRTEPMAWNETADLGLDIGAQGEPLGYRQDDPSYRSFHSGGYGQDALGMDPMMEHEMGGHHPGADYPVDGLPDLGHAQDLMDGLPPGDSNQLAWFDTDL
UniProt Q9NQB0: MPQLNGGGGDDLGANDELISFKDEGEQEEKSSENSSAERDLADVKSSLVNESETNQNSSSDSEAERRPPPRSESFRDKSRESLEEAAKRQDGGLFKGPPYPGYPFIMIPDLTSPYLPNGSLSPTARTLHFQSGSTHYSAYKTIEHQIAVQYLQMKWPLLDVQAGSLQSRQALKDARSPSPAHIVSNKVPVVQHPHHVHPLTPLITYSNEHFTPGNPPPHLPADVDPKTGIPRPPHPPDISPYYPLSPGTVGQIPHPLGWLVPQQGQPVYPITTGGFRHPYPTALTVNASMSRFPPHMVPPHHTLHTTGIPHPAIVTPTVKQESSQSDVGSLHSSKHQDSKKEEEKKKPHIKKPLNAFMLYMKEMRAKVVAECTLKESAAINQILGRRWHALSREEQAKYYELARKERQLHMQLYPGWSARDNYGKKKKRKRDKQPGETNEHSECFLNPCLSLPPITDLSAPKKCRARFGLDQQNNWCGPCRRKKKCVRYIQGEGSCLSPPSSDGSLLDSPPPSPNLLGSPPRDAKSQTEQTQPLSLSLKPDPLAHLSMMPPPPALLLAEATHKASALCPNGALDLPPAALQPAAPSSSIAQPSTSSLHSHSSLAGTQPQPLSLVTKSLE
UniProt Q09472: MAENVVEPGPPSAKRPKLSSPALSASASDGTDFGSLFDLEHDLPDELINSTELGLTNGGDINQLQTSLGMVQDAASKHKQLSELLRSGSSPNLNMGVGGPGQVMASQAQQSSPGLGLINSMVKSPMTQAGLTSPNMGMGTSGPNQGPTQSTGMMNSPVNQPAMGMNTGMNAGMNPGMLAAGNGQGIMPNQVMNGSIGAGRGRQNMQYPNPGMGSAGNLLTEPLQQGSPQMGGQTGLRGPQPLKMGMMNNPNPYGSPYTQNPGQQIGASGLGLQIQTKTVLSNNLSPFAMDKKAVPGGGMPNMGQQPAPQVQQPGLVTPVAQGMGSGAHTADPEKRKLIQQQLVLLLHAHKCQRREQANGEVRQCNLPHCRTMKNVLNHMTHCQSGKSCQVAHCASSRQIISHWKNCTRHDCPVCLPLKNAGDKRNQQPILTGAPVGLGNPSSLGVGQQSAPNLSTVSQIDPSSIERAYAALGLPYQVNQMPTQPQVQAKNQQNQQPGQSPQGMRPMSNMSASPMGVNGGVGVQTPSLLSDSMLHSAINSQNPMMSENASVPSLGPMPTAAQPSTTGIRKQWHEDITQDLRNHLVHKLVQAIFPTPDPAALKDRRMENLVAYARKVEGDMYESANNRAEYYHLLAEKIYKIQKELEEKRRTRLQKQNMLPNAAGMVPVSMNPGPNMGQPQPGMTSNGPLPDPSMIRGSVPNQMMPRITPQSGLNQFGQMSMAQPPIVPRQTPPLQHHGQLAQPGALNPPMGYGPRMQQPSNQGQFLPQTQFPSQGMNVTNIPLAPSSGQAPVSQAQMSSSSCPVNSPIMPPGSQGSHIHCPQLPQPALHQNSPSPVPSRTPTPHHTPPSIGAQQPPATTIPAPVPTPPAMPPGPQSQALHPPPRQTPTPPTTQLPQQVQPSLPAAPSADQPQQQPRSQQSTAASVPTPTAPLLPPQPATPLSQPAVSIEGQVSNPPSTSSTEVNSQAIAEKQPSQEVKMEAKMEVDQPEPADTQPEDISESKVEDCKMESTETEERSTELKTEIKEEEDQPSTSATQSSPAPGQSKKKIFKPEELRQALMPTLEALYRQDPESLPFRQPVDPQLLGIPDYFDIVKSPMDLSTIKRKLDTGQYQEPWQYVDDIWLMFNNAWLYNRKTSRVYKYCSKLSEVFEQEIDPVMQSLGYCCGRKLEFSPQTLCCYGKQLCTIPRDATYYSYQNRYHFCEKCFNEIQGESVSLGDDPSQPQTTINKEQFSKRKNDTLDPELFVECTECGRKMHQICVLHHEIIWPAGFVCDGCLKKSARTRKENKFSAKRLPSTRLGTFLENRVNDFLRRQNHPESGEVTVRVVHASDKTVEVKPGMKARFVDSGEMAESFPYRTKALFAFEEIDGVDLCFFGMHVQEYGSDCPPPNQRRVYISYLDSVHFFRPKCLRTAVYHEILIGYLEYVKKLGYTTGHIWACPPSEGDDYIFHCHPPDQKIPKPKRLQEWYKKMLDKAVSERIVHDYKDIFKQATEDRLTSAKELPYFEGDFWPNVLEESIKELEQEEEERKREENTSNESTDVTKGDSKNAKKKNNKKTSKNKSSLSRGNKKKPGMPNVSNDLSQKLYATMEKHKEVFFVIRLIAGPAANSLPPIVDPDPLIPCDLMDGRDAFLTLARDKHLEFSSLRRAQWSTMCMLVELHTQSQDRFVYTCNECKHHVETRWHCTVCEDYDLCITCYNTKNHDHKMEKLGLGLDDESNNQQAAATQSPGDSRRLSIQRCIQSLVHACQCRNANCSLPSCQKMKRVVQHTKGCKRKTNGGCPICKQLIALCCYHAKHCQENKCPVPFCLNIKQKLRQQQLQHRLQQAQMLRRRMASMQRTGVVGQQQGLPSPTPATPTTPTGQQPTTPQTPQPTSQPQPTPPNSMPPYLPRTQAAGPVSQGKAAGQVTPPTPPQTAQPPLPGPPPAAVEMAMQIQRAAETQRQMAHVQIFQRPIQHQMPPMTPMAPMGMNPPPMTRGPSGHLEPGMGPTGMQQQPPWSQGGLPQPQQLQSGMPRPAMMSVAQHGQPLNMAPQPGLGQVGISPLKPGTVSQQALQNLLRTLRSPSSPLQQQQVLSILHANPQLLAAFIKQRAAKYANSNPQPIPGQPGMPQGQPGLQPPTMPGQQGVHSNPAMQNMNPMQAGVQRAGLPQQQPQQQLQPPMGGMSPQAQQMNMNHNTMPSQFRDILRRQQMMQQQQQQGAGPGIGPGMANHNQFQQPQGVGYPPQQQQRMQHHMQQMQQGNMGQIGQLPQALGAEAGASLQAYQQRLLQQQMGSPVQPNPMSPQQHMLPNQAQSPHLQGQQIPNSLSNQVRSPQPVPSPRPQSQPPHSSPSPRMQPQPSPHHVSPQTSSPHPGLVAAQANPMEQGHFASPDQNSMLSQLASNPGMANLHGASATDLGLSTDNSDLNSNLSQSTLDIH

binding [2] | binding [3] | binding [4] | Substance | binding [1]
binds | – | – | p300 (endogenous, HepG2 and Huh6 cells) (from UniProt Q09472 1-2414) | no binding (condition: cells treated with 5 μM PRI-724)
– | binds | binds | p300 (endogenous, aggressive HBL tumors) (from UniProt Q09472 1-2414) | –

Source: PMC9775972
